Measured values reported in article PMC10621992.
Results are given in words; binding and its absence hold for the method and conditions named. In cells and extracts the contact can be indirect. Here binding means that the protein was enriched with, or labelled near, the bait; the list need not be complete.

Chains of the proteins cited; added tags and fusions are not shown.
UniProt P51451: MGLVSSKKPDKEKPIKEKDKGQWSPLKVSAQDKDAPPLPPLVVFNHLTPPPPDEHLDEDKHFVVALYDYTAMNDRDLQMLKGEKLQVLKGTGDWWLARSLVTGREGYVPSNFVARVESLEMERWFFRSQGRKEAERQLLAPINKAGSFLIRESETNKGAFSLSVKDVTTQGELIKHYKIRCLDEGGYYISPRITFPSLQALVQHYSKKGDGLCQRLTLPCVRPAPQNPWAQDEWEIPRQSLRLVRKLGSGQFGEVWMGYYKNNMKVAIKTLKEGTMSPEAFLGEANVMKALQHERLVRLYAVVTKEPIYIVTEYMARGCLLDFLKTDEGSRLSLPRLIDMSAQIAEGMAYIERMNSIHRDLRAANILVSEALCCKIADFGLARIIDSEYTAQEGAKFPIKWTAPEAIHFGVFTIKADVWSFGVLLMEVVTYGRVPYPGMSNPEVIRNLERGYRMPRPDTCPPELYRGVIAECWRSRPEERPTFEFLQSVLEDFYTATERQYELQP
UniProt Q14653: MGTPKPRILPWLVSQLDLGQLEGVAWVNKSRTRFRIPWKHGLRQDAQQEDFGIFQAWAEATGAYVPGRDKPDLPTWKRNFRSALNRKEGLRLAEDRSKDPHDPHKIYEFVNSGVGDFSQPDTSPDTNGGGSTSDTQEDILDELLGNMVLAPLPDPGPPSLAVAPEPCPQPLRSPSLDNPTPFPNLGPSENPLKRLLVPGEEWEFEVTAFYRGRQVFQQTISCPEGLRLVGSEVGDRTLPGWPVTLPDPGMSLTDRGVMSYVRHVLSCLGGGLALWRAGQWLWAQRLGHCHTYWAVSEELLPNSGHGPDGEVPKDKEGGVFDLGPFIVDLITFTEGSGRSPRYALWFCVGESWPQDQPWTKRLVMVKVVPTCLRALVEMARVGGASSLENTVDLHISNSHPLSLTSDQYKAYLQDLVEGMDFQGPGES

Target: GST-BLK (B lymphoid tyrosine kinase), expressed in HEK293 cells (human) (UniProt P51451)
Test: affinity purification with mass spectrom

“IRF3 (interferon regulatory factor 3), endogenous in HEK293 cells (from UniProt Q14653 1-427)” was tested, and the binding was “binds”.
